{"sequences": {"note": "Sequences of proteins named here, by UniProt entry; tags and fusion partners are left off. Residues count along the entry.", "human CASKIN2 SAM1 domain (483-549) (Q8WXE0, residues 483-549)": "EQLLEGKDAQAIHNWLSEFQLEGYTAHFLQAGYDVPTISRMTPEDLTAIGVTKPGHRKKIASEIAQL", "human CASKIN2 SAM2 domain (550-634) (Q8WXE0, residues 550-634)": "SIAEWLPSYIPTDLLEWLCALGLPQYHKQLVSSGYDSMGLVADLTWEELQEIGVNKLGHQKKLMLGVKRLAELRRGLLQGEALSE"}, "source": "paper PMC4994250", "target": "human CASKIN2 SAM2 domain (550-634) (human) (UniProt Q8WXE0)", "assay": "NMR titration; 1H-15N HSQC of 15N-labeled SAM2 at 100 μM, then unlabeled SAM1 added at a 1:1 stoichiometric ratio; both purified", "note": "Results are given in words; binding and its absence hold for the method and conditions named.", "data": [{"substance": "human CASKIN2 SAM1 domain (483-549) (from UniProt Q8WXE0 483-549) (domain or fragment)", "values": [{"measurement": "binding", "result": "no binding (tested: 100 μM, 1:1 stoichiometric ratio)"}]}]}
